From patent US20250114285A1, “ARRAY OF HAIR DYE PRODUCTS” (The Procter & Gamble Company, priority 2023, published 2025)

Test: Composition Formulation: color accuracy, dye distribution, oiliness (Example 12)
Design: key: Desirable results are indicated as “good.”; Undesirable results are indicated as “bad.”
Settings: balance Moremo, 2 min activation
[1] = Dye 0.2 wt %, isopropyl myristate 9.8 wt %
[2] = Dye 0.4 wt %, isopropyl myristate 19.6 wt %
[3] = Dye 0.61 wt %, isopropyl myristate 30.1 wt %
[4] = Dye 0.7 wt %, isopropyl myristate 34.3 wt %
[5] = Dye 0.81 wt %, isopropyl myristate 39.8 wt %
[6] = Dye 1.0 wt %, isopropyl myristate 49.0 wt %
[7] = Dye 1.2 wt %, isopropyl myristate 58.8 wt %
[8] = Dye 1.47 wt %, isopropyl myristate 29.2 wt %
[9] = Dye 1.4 wt %, isopropyl myristate 68.6 wt %

Row | SMILES | Color Accuracy [1] | Dye distribution [1] | Oiliness [1] | Color Accuracy [2] | Dye distribution [2] | Oiliness [2] | Color Accuracy [3] | Dye distribution [3] | Oiliness [3] | Color Accuracy [4] | Dye distribution [4] | Oiliness [4] | Color Accuracy [5] | Dye distribution [5] | Oiliness [5] | Color Accuracy [6] | Dye distribution [6] | Oiliness [6] | Color Accuracy [7] | Dye distribution [7] | other results
1 | Cc1sc(-c2ccccc2)cc1C1=C(c2cc(-c3ccccc3)sc2C)C(F)(F)C(F)(F)C1(F)F [DAE-0001, 3,3′-(perfluorocyclopent-1-ene-1,2-diyl)bis(2-methyl-5-phenylthiophene)] | bad | bad | good | bad | bad | good | bad | good | good | good | good | bad | good | good | bad | good | good | bad | good | good | Oiliness [7]: bad; Color Accuracy [8]: good; Dye distribution [8]: good; Oiliness [8]: good
2 | Cc1sc(-c2ccccc2)nc1C1=C(c2nc(-c3ccccc3)sc2C)C(F)(F)C(F)(F)C1(F)F [DAE-0012, 4,4′-(perfluorocyclopent-1-ene-1,2-diyl)bis(5-methyl-2-phenylthiazole)] | bad | bad | good | bad | bad | good | bad | good | good | good | good | good | good | good | bad | good | good | bad | good | good | Oiliness [7]: bad; Color Accuracy [9]: good; Dye distribution [9]: good; Oiliness [9]: bad
